These results are taken from PMC11642102.

Amino acid sequences for entries named in this document (tags omitted).
UniProt Q01827: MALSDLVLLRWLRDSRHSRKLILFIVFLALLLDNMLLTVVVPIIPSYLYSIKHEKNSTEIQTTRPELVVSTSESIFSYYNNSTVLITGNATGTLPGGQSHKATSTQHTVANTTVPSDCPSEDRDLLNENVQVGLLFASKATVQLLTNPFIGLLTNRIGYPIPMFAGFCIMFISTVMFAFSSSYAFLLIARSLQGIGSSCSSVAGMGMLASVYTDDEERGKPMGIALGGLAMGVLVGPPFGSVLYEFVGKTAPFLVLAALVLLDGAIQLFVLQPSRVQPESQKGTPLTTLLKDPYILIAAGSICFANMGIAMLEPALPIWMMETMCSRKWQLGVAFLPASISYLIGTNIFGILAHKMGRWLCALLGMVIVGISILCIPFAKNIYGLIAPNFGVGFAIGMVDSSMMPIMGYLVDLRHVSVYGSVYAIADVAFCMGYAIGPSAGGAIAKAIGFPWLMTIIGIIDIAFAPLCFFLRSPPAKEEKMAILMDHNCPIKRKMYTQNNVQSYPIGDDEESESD

No constants are given. Whether binding was seen depends on the method and setting. Binding seen in cells or lysates may run through a third protein. Here binding means that the protein was enriched with, or labelled near, the bait; the list need not be complete. Sequences can lack the tags named with a protein.

Sequences and labels used below:
B1: Receptor-type tyrosine-protein phosphatase-like N (protein, UniProt Q63259 41-983)
chain: ISAHGCLFDRRLCSHLEVCIQDGLFGQCQAGVGQARPLLQVTSPVLQRLQGVLRQLMSQGLSWHDDLTQYVISQEMERIPRLRPPEPHPRDRSGSVPRRAGPAGELLSQGNPTGSSPAVQGLSRPPGDGNGAGVGSPLSSLQAELLPPLLEHLLMPPQPPHPSLTYEPALLQPYLFQQFGSRDGSRGSESASGVVGHLAKAEDPVLFSRSLSKAILGTHSGHSFGDLTGPSPAQLFQDSGLLYMAQELPVPGRARAPRLPEEGGSSRAEDSSEGHEEEVLGGHGEKSPPQAVQADVSLQRLAAVLAGYGVELRQLTPEQLSTLLTLLQLLPKGTGRHLGGAVNGGADVKKTIEEQMQRGDTADARPPTPLLPGHPTASSTSIKVRQVLSPGFPEPPKTSSPLGISAVLLEKKSPLGQSQPTVVGQPSARPSAEEYGYIVTDQKPLSLVAGVKLLEILAEHVHMTSGSFINISVVGPAVTFRIRHNEQNLSLADVTQQAGLVKSELEAQTGLQILQTGVGQREESAAVLPRQAHGISPMRSLLLTLVALAGVAGLLVALAVALCMRHHSKQRDKERLAALGPEGAHGDTTFEYQDLCRQHMATKSLFNRAEGQPEPSRVSSVSSQFSDAAQASPSSHSSTPSWCEEPAQANMDISTGHMILAYMEDHLRNRDRLAKEWQALCAYQAEPNTCATAQGEGNIKKNRHPDFLPYDHARIKLKVESSPSRSDYINASPIIEHDPRMPAYIATQGPLSHTIADFWQMVWESGCTVIVMLTPLVEDGVKQCDRYWPDEGSSLYHVYEVNLVSEHIWCEDFLVRSFYLKNVQTQETRTLTQFHFLSWPAEGTPASTRPLLDFRRKVNKCYRGRSCPIIVHCSDGAGRTGTYILIDMVLNRMAKGVKEIDIAATLEHVRDQRPGLVRSKDQFEFALTAVAEEVNAILKALPQ
B2: synaptotagmin IV (protein, UniProt P50232 1-425)
chain: MAPITTSRVEFDEIPTVVGIFSAFGLVFTVSLFAWICCQRRSAKSNKTPPYKFVHVLKGVDIYPENLSSKKKFGGDDKSEAKRKAALPNLSLHLDLEKRDLNGNFPKTNPKAGSSSDLENVTPKLFPETEKEAVSPESLKSSTSLTSEEKQEKLGTLFLSLEYNFEKKAFVVNIKEAQGLPAMDEQSMTSDPYIKMTILPEKKHKVKTRVLRKTLDPVFDETFTFYGVPYPHIQELSLHFTVLSFDRFSRDDVIGEVLVPLSGIELSDGKMLMTREIIKRNAKKSSGRGELLVSLCYQSTTNTLTVVVLKARHLPKSDVSGLSDPYVKVNLYHAKKRISKKKTHVKKCTPNAVFNELFVFDIPCESLEEISVEFLVLDSERGSRNEVIGRLVLGATAEGSGGGHWKEICDFPRRQIAKWHMLCDG
B3: Sorting nexin-17 (protein, UniProt Q6AYS6 1-470)
chain: MHFSIPETESRSGDSGGSTYVAYNIHVNGVLHCRVRYSQLLGLHEQLRKEYGANVLPAFPPKKLFSLTPAEVEQRREQLEKYMQAVRQDPLLGSSETFNSFLRRAQQETQQVPTEEVSLEVLLSDGQKVLVNVLTSDQTEDVLEAVAAKLDLPDDLIGYFSLFLVREKEDGAFSFVRKLQEFELPYVSVTSLRSQEYKIVLRKSYWDSAYDDDVMENRVGLNLLYAQTVSDIEHGWILVTKEQHRQLKSLQEKVSKKEFLRLAQTLRHYGYLRFDACVADFPEKDCPVVVSAGNSELSLQLRLPGQQLREGSFRVTRMRCWRVTSSVPLPSGGTSTPSRGRGEVRLELAFEYLMSKDRLQWVTITSPQAIMMSICLQSMVDELMVKKSGGSIRKMLRRRVGGNLRRSDSQQAVKSPPLLESPDASRESMVKLSSKLSAVSLRGIGSPSTDASASAVHGNFAFEGIGDEDL
B4: Glia maturation factor beta (protein, UniProt Q63228 1-142)
chain: MSESLVVCDVAEDLVEKLRKFRFRKETHNAAIIMKIDKDKRLVVLDEELEGVSPDELKDELPERQPRFIVYSYKYQHDDGRVSYPLCFIFSSPLGCKPEQQMMYAGSKNKLVQTAELTKVFEIRNTEDLTEEWLREKLGFFH
B5: cell division cycle related-1 (CDCrel-1) (protein, UniProt Q9JJM9 1-369)
chain: MSTGLRYKSKLATPEDKQDIDKQYVGFATLPNQVHRKSVKKGFDFTLMVAGESGLGKSTLVHSLFLTDLYKDRKLLSAEERINQTVEILKHTVDIEEKGVKLKLTIVDTPGFGDAVNNFECWKPITDYVDQQFEQYFRDESGLNRKNIQDNRVHCCLYFISPFGHGLRPVDVGFMKALHEKVNIVPLIAKADCLVPSEIRKLKDRIREEIDKFGIHVYQFPECDSDEDEDFKQQDRELKESAPFAVIGSNTVVEAKGQRVRGRLYPWGIVEVENQAHCDFVKLRNMLIRTHMHDLKDVTCDVHYENYRAHCIQQMTSKLTQDSRMESPIPILPLPTPDSETEKLIRMKDEELRRMQEMLQKMKQRMQDQ
B6: Apolipoprotein D (protein, UniProt P23593 21-189)
chain: QSFHLGKCPSPPVQENFDVKKYLGRWYEIEKIPVSFEKGNCIQANYSLMENGNIKVLNKELRPDGTLNQVEGEAKQSNMSEPAKLEVQFFSLMPPAPYWILATDYESYALVYSCTTFFWFFHVDYVWILGRNPYLPPETITYLKYILTSNDIDIAKITTKDQANCPDFL
B7: Fibrinogen alpha chain (protein, UniProt P06399 37-782)
chain: GPRIVERQPSQCKETDWPFCSDEDWNHKCPSGCRMKGLIDEANQDFTNRINKLKNSLFDFQKNNKDSNSLTRNIMEYLRGDFANANNFDNTFGQVSEDLRRRIQILKRKVIEKAQQIQVLQKDVRDQLIDMKRLEVDIDIKIRSCKGSCSRSVSREINLKDYEGQQKQLEQVIAKDLLPAKDRQYLPAIKMSPVPDLVPGSFKSQLQEGPPEWKALTEMRQMRMELERPGKDGASRGDLPGDSRGDSATRGPGSKIENPMTPGHGGSGYWRPGSSGSGSDGNWGSGTTGSDDTGTWGAGSSRPSSGSGNLKPSNPDWGEFSEFGGSSSPATRKEYHTGKLVTSKGDKELLIGNEKVTSTGTSTTRRSCSKTITKTVLGNDGHREVVKEVVTSDDGSDCGDGMDLGLTHSFSGRLDELSRMHPELGSFYDSRFGSLTSNFKEFGSKTSDSDIFTDIENPSSHVPEFSSSSKTSTVRKQVTKSYKMADEAASEAHQEGDTRTTKRGRARTMRDCDDVLQTHPSGAQNGIFSIKLPGSSKIFSVYCDQETSLGGWLLIQQRMDGSLNFNRTWQDYKRGFGSLNDKGEGEFWLGNDYLHLLTLRGSVLRVELEDWAGKEAYAEYHFRVGSEAEGYALQVSSYQGTAGDALMEGSVEEGTEYTSHSNMQFSTFDRDADQWEENCAEVYGGGWWYNSCQAANLNGIYYPGGTYDPRNNSPYEIENGVLWVPFRGADYSLWAVRMKIRPLVGQ

The target in the test is vesicular monoamine transporter-2 (VMAT2) (rat (endogenous in Sprague Dawley rat striatum)) (UniProt Q01827). Briefly: affinity purification with mass spectrometry; Dynabeads with anti-VMAT2 antibody, membrane/endosomal fraction of striatal synaptosomes of saline- and METH-treated rats killed 1 h after treatment (n = 4); SDS-PAGE, in-gel trypsin digest, LC-MS/MS (Q Exactive).
For B1, the binding entry is recorded as “binds”.

Take B2: the binding result is listed as “binds”.

B3: the binding entry was “binds”.

Take B4: the binding result is “binds”.

Consider B5, for which the binding result was “binds”.

As for B6, the binding result is recorded as “binds”.

For the molecule B7, the binding entry is “binds”.
